At least one compound was matched to its structure with a doubt left.
Tested on: Pre-OLs from Nkx2.1-GFP+ sorted cultures at stage VI, day 21
Test: Pharmacological blockade of MCT8 with Bosutinib, DAPI+ dead cells by flow cytometry
Format: cell-based, human
Details: increasing concentration of Bosutinib (1-100 ng/mL), 48 hours
Description: Pre-OLs from Nkx2.1-GFP+ sorted cultures at stage VI, day 21 were treated with the pharmacological inhibitor of MCT8, bosutinib (LC Laboratories, B-1788, reconstituted in dimethyl sulfoxide, [DMSO]) at different concentrations (1 ng/mL, 10 ng/mL and 100 ng/mL) with co-administration of 10 ng/mL DITPA. An MTT assay and flow cytometry were then performed on the cells stained for DAPI after 48 hours of treatment, to analyze DAPI+ dead cells.

With `COc1cc(Nc2c(C#N)cnc3cc(OCCCN4CCN(C)CC4)c(OC)cc23)c(Cl)cc1Cl` [Bosutinib] as the compound, how does the “proportions of DAPI+ dead cells” value read?
The value was “increased proportions”.
